# Experimental data: paper PMC9502314
# These are yes or no findings as the source states them, for the method shown. Binding can be weak; no strength is given. For some assays here: Tags and fused reporters may be left off the sequences shown.
# T1: CsHydr1^Δsp in pGBKT7 (hydrophobin CsHydr1 without its signal peptide) (Colletotrichum siamense)
# T1 sequence: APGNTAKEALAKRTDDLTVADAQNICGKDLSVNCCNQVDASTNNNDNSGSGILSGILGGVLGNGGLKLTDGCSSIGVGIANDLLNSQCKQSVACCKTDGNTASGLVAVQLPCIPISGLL
# B1: GST-CsHydr1 fusion protein (from pGEX-6p-CsHydr1^Δsp) (domain or fragment, UniProt A0A6G6VYL3 20-138)
# chain: T1 sequence
# Key:
# [1] = target: T1, CsHydr1^Δsp in pGBKT7 (hydrophobin CsHydr1 without its signal peptide) (Colletotrichum siamense); test: two-hybrid; pGBKT7 and pGADT7 plasmids co-transformed into yeast Y2H; growth on SD/-Trp-Leu-His-Ade plates, 30 °C, 3 d
# [2] = target: His-CsCap20 fusion protein (from pET32a-CsCap20) (Colletotrichum siamense); test: pull-down; His pull-down of His-CsCap20 with GST-CsHydr1, western blot; as described in ref. 23; both purified
Molecule,binding [1],binding [2]
"CsCap20 in pGADT7 (lipid droplet-coating protein CsCap20, whole) (Colletotrichum siamense)",binds,
B1,,binds
